The nature of the test: IkB Signaling. To be noted: ABC-DLBCL IkBa-CBG/CBR dual luciferase ratio (green luciferase fused to IkBa over red control in OCI-Ly3 lymphoma cells), 4 h. Summed up:
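Curves were fitted separately to fusion (green), unfused (red) and ratio luminescence, then classed by r2, magnitude and activity. Cells: OCI-Ly3, 4 h compound plus doxycycline at 37C; 10 uM MG-132 defined full response.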

The mark [1] stands for this setting: measured here: control luc red channel unless noted.

Some of the results follow. The main result of the screen is listed elsewhere. These columns were measured beside it and carry no call. Compounds called inactive in the main read-out are mostly missing here. Potencies come from curve fits of mixed quality, noted in brackets.

As a reminder, the AC50 is the concentration at which the activity in the assay is half-maximal. `Cc1cccc(C(=O)N2CCc3cc(CNC(=O)COc4ccc(Cl)cc4)ccc32)c1`: under setting [1], the AC50 was 39.8 µM [falling, single point]. On to `O=C(c1cc(-c2ccc(Cl)cc2)on1)N1CCOCC1`, for which the AC50 under setting [1] is 2 µM [falling, full curve]. Same read-out and setting: in the case of `COC(=O)c1ccc(CSc2nnnn2-c2ccccc2)o1` it was 31.6 µM [rising, single point] [measured here: IkB-luc green channel]; in that of `Cc1ccc(N2C(=O)CSC23C(=O)N(Cc2ccccc2F)c2ccccc23)cc1F` (centres undefined), 31.6 µM [falling, partial curve].

As for `COc1cc2c(=O)c(C(=O)c3ccc(C)c(C)c3)cn(Cc3ccc(F)cc3)c2cc1OC`, the AC50 under setting [1] was 25.1 µM [falling, partial curve].

For `CCOc1cc(CNC(=O)Cn2c(=O)c3cccn3c3ccc(F)cc32)cc(OCC)c1OCC`, the AC50 under setting [1] is 0.794 µM [rising, full curve]. Still for that read-out and setting: in the case of `COc1cc(OC)c(NC(=O)c2cc3c(=O)oc4ccc(C)cc4c3s2)cc1Cl` it was 2 µM [rising, full curve]; in that of `Cc1ccc(-n2ncc3c(NCCO)ncnc32)cc1Cl`, 25.1 µM [falling, single point]; in that of `Cc1cc(NC(=O)c2cc(-c3ccc(Cl)cc3)on2)n(-c2ccccc2)n1`, 10 µM [falling, full curve]. The same measure, in the same setting: for `COC(=O)c1cc2oc3ccccc3c2n1CC(=O)Nc1ccc(C)c(F)c1` the value was 15.8 µM [falling, partial curve]; for `Cc1ccc(Cl)cc1NC(=O)COC(=O)CC(C)(C)CC1=NS(=O)(=O)c2ccccc2N1`, 10 µM [falling, partial curve]. Consider `CN(CC(=O)Nc1ccc2c(c1)OCCO2)S(=O)(=O)c1cccc2cccnc12`, for which the AC50 under setting [1] was 6.31 µM [falling, partial curve].

For `CCOC(=O)c1ccccc1NC(=O)CN1CCCN(Cc2cc(C)ccc2C)S1(=O)=O`, the AC50 under setting [1] was 31.6 µM [falling, partial curve]. Still for that read-out and setting: for `CCOC(=O)c1[nH]c2ccccc2c1NC(=O)c1ccccc1F` the value was 0.251 µM [falling, partial curve, poor fit]. The same measure, in the same setting: in the case of `Cc1ncsc1C(=O)Nc1nc2c(s1)CC(C)CC2` (centres undefined) it was 3.16 µM [falling, full curve, poor fit]. Same read-out and setting: in the case of `COc1ccc(C)cc1NC(=O)CSc1nnc(COc2ccc(Cl)cc2)n1Cc1ccco1` it was 7.94 µM [falling, full curve]; in that of `Cc1ccccc1NC(=O)c1ccc2[nH]c(C)c(C)c2c1`, 15.8 µM [falling, partial curve].

Turning to `CCc1cccc(C)c1NC(=O)CCS(=O)(=O)c1cc(Br)cc2c1N(C(=O)C1CC1)CC2`, the AC50 under setting [1] is 3.16 µM [rising, single point]. The same measure, in the same setting: in the case of `Cc1sc2ncnc(N3CCCCC3C)c2c1C` (centres undefined) it was 31.6 µM [falling, partial curve]; in that of `COc1ccc(C(=O)NCC(c2cccnc2)N2CCN(c3ccccc3)CC2)cc1` (centres undefined), 25.1 µM [falling, single point]. Same read-out and setting: in the case of `CCCc1nn2c(=O)cc(COC(=O)c3cccc(NC(=O)c4cccs4)c3)nc2s1` it was 0.794 µM [falling, full curve]; in that of `COc1cccc(Cn2c(=O)cc(C)c3c(C)nn(C)c32)c1`, 0.158 µM [rising, full curve]. On the same count and under the same terms, in the case of `COc1ccc(S(=O)Cc2ccc(C(=O)N3CCN(c4cccc(C)c4C)CC3)o2)cc1` (centres undefined) it was 15.8 µM [falling, single point]; in that of `Cc1c(Cl)cccc1NC(=O)Cn1c(=O)n(Cc2ccco2)c(=O)c2sc3ccccc3c21`, 0.0158 µM [rising, full curve, poor fit]; in that of `O=C(Nc1ccc(C(=O)OCc2cc(=O)n3c4c(sc3n2)CCCC4)cc1)c1ccc(F)cc1`, 10 µM [falling, partial curve]. As for `O=C(CCCCn1c(=O)c2ccccc2n(CC(=O)Nc2cccc(C(F)(F)F)c2)c1=O)NCc1ccc2c(c1)OCO2`, the AC50 under setting [1] was 7.94 µM [falling, full curve]. Still for that read-out and setting: for `CCOC(=O)c1ccc(Nc2nn3c(=O)c4ccccc4nc3s2)cc1` the value was 0.158 µM [falling, full curve]; for `COc1ccc(OC)c(NC(=O)c2ccc3c(Cl)c4c(nc3c2)CCCC4)c1`, 2.51 µM [falling, full curve]. Turning to `CCCCN(C)C(=O)Cn1cnc2sc(C)c(S(=O)(=O)N3CCC(C)CC3)c2c1=O`, under setting [1], the AC50 is 0.0251 µM [falling, full curve, poor fit].

Consider `COc1ccccc1-c1nc2s/c(=C\c3cccs3)c(=O)n2n1`, for which, under setting [1], the AC50 was 2 µM [falling, partial curve]. On the same count and under the same terms, in the case of `Cc1ccc(S(=O)(=O)/C=C\C#N)cc1` it was 2.51 µM [falling, full curve].

On to `CCN(CC)c1ccc(C2Nc3ccccc3-c3cc(C)nn32)cc1` (centres undefined), for which the AC50 under setting [1] was 12.6 µM [falling, partial curve]. The same measure, in the same setting: for `Nc1nn(-c2ccccc2)nc1C(=O)OCc1c(F)cccc1Cl` the value was 0.398 µM [rising, full curve]; for `COc1cc(Nc2nc(SCC(=O)c3ccc(Cl)c(Cl)c3)nc3ccccc23)cc(OC)c1`, 0.794 µM [falling, full curve]; for `Cc1cc(C(=O)NCc2ccccc2)c2c(C)nn(-c3cccc(F)c3)c2n1`, 0.251 µM [falling, single point]. On the same count and under the same terms, for `O=C(Cn1c(=O)c2cccn2c2ccccc21)NCc1ccccc1F` the value was 20 µM [falling, partial curve]; for `Cc1cccc(N(CC(=O)NCCSCc2ccccc2)S(=O)(=O)c2ccccc2)c1C`, 12.6 µM [falling, partial curve]; for `Cc1ccc(-c2c(C)c(-c3ccc(F)cc3)nc(N)c2C#N)o1`, 12.6 µM [falling, partial curve]. On the same count and under the same terms, for `Cc1ccc(C(=O)c2cn(Cc3ccccc3)c3nc(C)ccc3c2=O)cc1` the value was 39.8 µM [falling, single point]; for `Cc1nc(N2CCCC2)c2c(C(=O)N3CCN(c4cc(Cl)ccc4C)CC3)c(C)oc2n1`, 31.6 µM [falling, single point]. `CCn1c(=O)c(=O)n(CC)c2cc(S(=O)(=O)Nc3ccc(C)cc3)ccc21`: the AC50 under setting [1] is 15.8 µM [falling, partial curve]. Same read-out and setting: for `Cc1cccc(-n2c(=O)c3c4c(sc3n3c(C)nnc23)CCCC4)c1` the value was 1 µM [rising, full curve]; for `COc1ccc(NC(=O)c2oc3ccccc3c2NC(=O)C2CCCCC2)c(OC)c1`, 1.58 µM [falling, full curve, poor fit]; for `Clc1ccc(-n2c(Cc3ccccc3)nnc2SCc2nc(-c3cccs3)no2)cc1`, 20 µM [falling, partial curve].

With `CCCn1c(=O)c2ccccc2n2c(SCc3c(C(=O)OCC)oc4ccccc34)nnc12`, the AC50 under setting [1] was 25.1 µM [falling, partial curve]. Still for that read-out and setting: for `CCCCN(C)C(=O)c1ccc2c(c1)N(Cc1cccc(F)c1)C(=O)c1ccccc1S2` the value was 25.1 µM [falling, single point]. `Oc1cccc(Nc2nc(NCC3CCCO3)c3ccccc3n2)c1` (centres undefined): the AC50 is, setting by setting: (measured here: IkB-luc green channel) 10 µM [falling, partial curve]; (measured here: control luc red channel) 12.6 µM [falling, partial curve]. As for `Cc1cc(=O)n2[nH]c(-c3ccc(Cl)cc3)cc2n1`, under setting [1], the AC50 is 15.8 µM [falling, single point].

`Cc1cc(C)c(/C=C/c2onc(C)c2S(=O)(=O)N2CCC(C(=O)NCCc3ccccc3)CC2)c(C)c1`: under setting [1], the AC50 was 7.94 µM [falling, full curve, poor fit]. On to `Cc1c(CCC(=O)NCc2ccc(F)cc2)c(=O)oc2cc(O)ccc12`, for which the AC50 under setting [1] was 25.1 µM [falling, partial curve]. Turning to `CCCN(CCC)C(=O)c1c[nH]c2ccc(S(=O)(=O)N(C)c3ccc(OCC)cc3)cc2c1=O`, the AC50 under setting [1] is 39.8 µM [falling, single point]. The same measure, in the same setting: in the case of `O=C(CN1CCN(c2ccccn2)CC1)Nc1ccc(Oc2ccccc2)cc1` it was 15.8 µM [falling, partial curve]; in that of `Cc1ccccc1OCC(=O)Nc1ccc(C(=O)OCc2cc(=O)n3c(C)csc3n2)cc1`, 0.631 µM [rising, full curve, poor fit]. The same measure, in the same setting: in the case of `Cc1cc(C)cc(NC(=O)CSc2nnc(Cc3cccn3C)n2-c2ccc(F)cc2)c1` it was 12.6 µM [falling, partial curve]; in that of `COc1ccc(CNC(=O)CSCc2cnn(-c3ccccc3)c2-n2cccc2)cc1OC`, 10 µM [falling, partial curve]. The same measure, in the same setting: for `Cc1cccc(N2CCN(C(=O)c3cc4c(=O)[nH]c5ccc(C)cc5c4s3)CC2C)c1` (centres undefined) the value was 0.00501 µM [falling, full curve, poor fit]. `CC(=O)N1CCN(c2nc3c(F)cc(F)cc3s2)CC1`: under setting [1], the AC50 was 10 µM [rising, partial curve]. The same measure, in the same setting: in the case of `COc1ccc(C(C(=O)Nc2ccc(C(C)C)cc2)N(C)C(=O)Cc2cccs2)cc1` (centres undefined) it was 6.31 µM [falling, partial curve]; in that of `Cc1ccccc1Nc1nnc(-c2ccc(C)c(S(=O)(=O)N3CCN(C)CC3)c2)c2ccccc12`, 39.8 µM [falling, partial curve]. The same measure, in the same setting: for `Cc1cccc(Nc2nc(NCc3ccco3)nc(N3CCOCC3)n2)c1` the value was 15.8 µM [falling, partial curve]; for `CN(C)c1ccc(-c2nc3ccccc3n2C)cc1`, 7.94 µM [falling, partial curve]; for `COc1cccc(NC(c2nnc(-c3ccccc3)o2)c2ccc(F)cc2Cl)c1` (centres undefined), 12.6 µM [falling, partial curve]. As to `COc1ccc(C(=O)NCC(c2cccnc2)N2CCN(c3ccccc3OC)CC2)cc1` (centres undefined), the AC50 under setting [1] is 25.1 µM [falling, single point].

(Values after PubChem BioAssay AID445 (National Center for Advancing Translational Sciences (NCATS), 2006).)
